In test [1] the target is cytoplasmic domain of human sortilin (K779-E831) in fusion with LexA (human) (UniProt Q99523). Description: two-hybrid; one-by-one tests of bait (pB27) and prey plasmids, spot plated on -Leu/-Trp/-His plates with 3-AT; plasmids without inserts as negative controls.
Test [2] addresses sortilin-cd S15A (Ser793 to Ala), yeast two-hybrid bait (human) (UniProt Q99523). The description is as above.

Chains of the proteins cited; added tags and fusions are not shown. Lines headed by an entry give the natural chain unless they say otherwise; changes in a name come on top. Residues count along the entry.
cytoplasmic domain of human sortilin (K779-E831) in fusion with LexA (Q99523, residues 779-831): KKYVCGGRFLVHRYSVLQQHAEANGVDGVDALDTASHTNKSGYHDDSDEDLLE

Results are given in words; binding and its absence hold for the method and conditions named. Some binding calls cover weakened binding; strength is not graded here.

B1: AP-1 adaptor complex subunit μ1B (protein, UniProt Q9Y6Q5-1 1-423)
chain: MSASAVFILDVKGKPLISRNYKGDVAMSKIEHFMPLLVQREEEGALAPLLSHGQVHFLWIKHSNLYLVATTSKNANASLVYSFLYKTIEVFCEYFKELEEESIRDNFVIVYELLDELMDFGFPQTTDSKILQEYITQQSNKLETGKSRVPPTVTNAVSWRSEGIKYKKNEVFIDVIESVNLLVNANGSVLLSEIVGTIKLKVFLSGMPELRLGLNDRVLFELTGRSKNKSVELEDVKFHQCVRLSRFDNDRTISFIPPDGDFELMSYRLSTQVKPLIWIESVIEKFSHSRVEIMVKAKGQFKKQSVANGVEISVPVPSDADSPRFKTSVGSAKYVPERNVVIWSIKSFPGGKEYLMRAHFGLPSVEKEEVEGRPPIGVKFEIPYFTVSGIQVRYMKIIEKSGYQALPWVRYITQSGDYQLRTS
In the case of B1, the binding entry in test [1] and in test [2] was “binds” throughout.

B2: AP-1 adaptor complex subunit μ1A (protein, UniProt Q9BXS5-1 1-423)
chain: MSASAVYVLDLKGKVLICRNYRGDVDMSEVEHFMPILMEKEEEGMLSPILAHGGVRFMWIKHNNLYLVATSKKNACVSLVFSFLYKVVQVFSEYFKELEEESIRDNFVIIYELLDELMDFGYPQTTDSKILQEYITQEGHKLETGAPRPPATVTNAVSWRSEGIKYRKNEVFLDVIESVNLLVSANGNVLRSEIVGSIKMRVFLSGMPELRLGLNDKVLFDNTGRGKSKSVELEDVKFHQCVRLSRFENDRTISFIPPDGEFELMSYRLNTHVKPLIWIESVIEKHSHSRIEYMIKAKSQFKRRSTANNVEIHIPVPNDADSPKFKTTVGSVKWVPENSEIVWSIKSFPGGKEYLMRAHFGLPSVEAEDKEGKPPISVKFEIPYFTTSGIQVRYLKIIEKSGYQALPWVRYITQNGDYQLRTQ
With B2, the binding entry in test [1] and in test [2] was “binds” throughout.

These data come from PMC6965034.
